According to the M2OR odorant receptor database:
The entries are a selection whose mix differs from that of the whole data set. The calls were merged from several studies; some rest on single wells.

What was measured:
Details in all cases: stereoisomer not certain
[1] = molecular target: T1, UniProt Q8VGU3
T1 sequence (whole entry): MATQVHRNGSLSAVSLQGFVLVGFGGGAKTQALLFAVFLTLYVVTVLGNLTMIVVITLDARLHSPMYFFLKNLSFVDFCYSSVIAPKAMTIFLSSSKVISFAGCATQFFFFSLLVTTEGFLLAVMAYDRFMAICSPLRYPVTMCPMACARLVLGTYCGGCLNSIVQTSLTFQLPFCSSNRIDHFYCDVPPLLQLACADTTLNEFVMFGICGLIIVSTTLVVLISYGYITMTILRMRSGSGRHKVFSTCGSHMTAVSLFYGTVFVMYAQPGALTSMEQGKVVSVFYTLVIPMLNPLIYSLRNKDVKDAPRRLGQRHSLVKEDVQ
Outline: (§1)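 Each entry records the cell line, G-protein, co-transfected protein and tags used. Methods varied with the source, often transient luciferase assays in mammalian cell lines. A receptor–molecule pair is called responsive (active) if the original authors judged its signal statistically different from baseline and non-responsive (inactive) otherwise.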

[2] = molecular target: T2, UniProt Q8VGV7
T2 sequence (whole entry): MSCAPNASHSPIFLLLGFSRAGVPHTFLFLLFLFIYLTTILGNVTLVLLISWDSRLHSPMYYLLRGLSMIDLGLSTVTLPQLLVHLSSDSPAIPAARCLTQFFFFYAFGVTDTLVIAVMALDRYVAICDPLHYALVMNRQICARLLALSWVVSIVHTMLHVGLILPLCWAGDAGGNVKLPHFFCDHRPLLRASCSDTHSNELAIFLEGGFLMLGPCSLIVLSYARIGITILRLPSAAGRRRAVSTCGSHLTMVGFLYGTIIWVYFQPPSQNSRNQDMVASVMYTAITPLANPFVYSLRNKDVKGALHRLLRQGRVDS
Outline: as §1

[3] = molecular target: T3, UniProt Q8VGX3
T3 sequence (whole entry): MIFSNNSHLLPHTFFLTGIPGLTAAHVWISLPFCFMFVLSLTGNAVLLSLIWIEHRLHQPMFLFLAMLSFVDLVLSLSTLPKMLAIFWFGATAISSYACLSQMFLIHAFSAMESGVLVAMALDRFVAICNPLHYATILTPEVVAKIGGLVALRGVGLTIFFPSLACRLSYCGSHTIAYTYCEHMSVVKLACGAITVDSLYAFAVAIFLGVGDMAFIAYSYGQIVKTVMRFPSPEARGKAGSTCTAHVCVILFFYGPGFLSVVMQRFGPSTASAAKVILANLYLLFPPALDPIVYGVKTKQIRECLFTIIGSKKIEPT
Outline: as §1

[4] = molecular target: T4, UniProt Q8VGX5
T4 sequence (whole entry): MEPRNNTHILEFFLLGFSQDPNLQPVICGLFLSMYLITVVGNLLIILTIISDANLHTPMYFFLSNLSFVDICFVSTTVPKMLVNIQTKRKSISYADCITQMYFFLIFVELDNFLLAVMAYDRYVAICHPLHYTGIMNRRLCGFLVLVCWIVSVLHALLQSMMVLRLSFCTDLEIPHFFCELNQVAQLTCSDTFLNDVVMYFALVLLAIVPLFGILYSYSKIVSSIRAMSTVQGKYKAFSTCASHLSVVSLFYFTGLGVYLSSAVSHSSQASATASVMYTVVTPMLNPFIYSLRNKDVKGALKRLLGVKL
Outline: as §1

[5] = molecular target: T5, UniProt Q8VGZ2
T5 sequence (whole entry): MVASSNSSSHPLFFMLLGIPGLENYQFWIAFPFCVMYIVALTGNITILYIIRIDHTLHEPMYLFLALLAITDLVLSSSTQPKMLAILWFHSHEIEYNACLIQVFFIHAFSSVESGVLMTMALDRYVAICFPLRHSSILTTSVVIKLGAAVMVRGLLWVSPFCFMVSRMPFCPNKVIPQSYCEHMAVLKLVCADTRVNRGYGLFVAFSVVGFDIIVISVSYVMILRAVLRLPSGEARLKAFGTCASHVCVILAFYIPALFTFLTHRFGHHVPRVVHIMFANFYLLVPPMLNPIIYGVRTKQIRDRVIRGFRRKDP
Outline: as §1

[6] = molecular target: T6, UniProt Q8VGT4
T6 sequence (whole entry): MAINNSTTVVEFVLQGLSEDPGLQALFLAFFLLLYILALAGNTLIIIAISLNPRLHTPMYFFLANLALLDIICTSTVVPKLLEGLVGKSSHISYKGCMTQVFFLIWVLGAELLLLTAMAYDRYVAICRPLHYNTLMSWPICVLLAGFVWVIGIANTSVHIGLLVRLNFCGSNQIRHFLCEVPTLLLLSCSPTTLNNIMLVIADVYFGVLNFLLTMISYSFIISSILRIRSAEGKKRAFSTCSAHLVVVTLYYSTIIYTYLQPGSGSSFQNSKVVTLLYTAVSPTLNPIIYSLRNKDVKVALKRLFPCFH
Outline: as §1

[7] = molecular target: T7, UniProt Q8VGV1
T7 sequence (whole entry): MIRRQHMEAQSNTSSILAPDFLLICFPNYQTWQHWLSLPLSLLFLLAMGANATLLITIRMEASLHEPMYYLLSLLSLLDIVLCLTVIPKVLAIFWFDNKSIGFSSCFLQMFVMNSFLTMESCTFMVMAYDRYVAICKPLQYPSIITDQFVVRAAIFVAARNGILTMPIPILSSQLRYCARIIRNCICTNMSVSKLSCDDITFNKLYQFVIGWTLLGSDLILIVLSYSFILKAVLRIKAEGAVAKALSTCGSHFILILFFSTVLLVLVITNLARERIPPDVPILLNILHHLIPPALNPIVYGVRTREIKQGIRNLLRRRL
Outline: as §1

[8] = molecular target: T8, UniProt Q8VGW5
T8 sequence (whole entry): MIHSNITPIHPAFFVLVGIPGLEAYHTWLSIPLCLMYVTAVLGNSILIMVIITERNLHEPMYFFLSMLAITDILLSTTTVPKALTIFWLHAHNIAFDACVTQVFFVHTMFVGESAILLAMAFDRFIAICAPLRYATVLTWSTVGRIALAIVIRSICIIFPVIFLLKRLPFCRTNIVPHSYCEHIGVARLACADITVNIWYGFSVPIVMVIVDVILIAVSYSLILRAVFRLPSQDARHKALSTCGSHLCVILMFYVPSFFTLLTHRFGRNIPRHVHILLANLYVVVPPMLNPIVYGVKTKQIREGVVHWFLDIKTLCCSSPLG
Outline: as §1

[9] = molecular target: T9, UniProt Q8VGX8
T9 sequence (whole entry): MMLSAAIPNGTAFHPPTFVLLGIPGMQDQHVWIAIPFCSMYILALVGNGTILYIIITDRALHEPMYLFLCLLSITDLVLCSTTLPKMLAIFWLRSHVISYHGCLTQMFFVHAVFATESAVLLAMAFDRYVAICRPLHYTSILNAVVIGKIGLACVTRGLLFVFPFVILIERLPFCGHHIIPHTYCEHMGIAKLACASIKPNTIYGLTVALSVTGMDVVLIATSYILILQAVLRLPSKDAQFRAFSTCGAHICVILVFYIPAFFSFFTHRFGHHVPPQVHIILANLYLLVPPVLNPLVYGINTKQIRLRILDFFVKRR
Outline: as §1

[10] = molecular target: T10, UniProt Q8VGY6
T10 sequence (whole entry): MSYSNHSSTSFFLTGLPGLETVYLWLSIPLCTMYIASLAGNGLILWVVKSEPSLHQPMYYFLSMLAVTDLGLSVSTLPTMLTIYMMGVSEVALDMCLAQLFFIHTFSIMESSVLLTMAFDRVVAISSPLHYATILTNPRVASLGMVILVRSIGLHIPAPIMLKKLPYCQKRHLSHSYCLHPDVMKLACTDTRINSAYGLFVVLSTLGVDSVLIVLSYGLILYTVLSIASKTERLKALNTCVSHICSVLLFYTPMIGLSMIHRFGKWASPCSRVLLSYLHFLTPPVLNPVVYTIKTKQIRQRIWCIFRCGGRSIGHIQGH
Outline: as §1

Measured: odorant receptor agonist call

CCCCO
inactive: [1] | [2] | [3] | [4] | [5]

CCCCCC(=O)O
inactive: all assays above

c1cnccn1
inactive: [1] | [2] | [3] | [4] | [5]

CC(=O)c1ccccc1
active: [4]
inactive: all other assays above

CCCCCCCCCC=O
active: [5]
not listed: [8]
inactive: all other assays above

CC(=O)OC1CC2CCC1(C)C2(C)C (configuration not stated)
inactive: [1] | [2] | [3] | [4] | [5]

C=CC(C)(O)CCC=C(C)C (configuration not stated)
inactive: [1] | [2] | [3] | [4] | [5]

CCCCCCCC=O
not listed: [8]
inactive: all other assays above

CCCCCOC(C)=O
inactive: [1] | [2] | [8] | [3] | [4] | [5]

CCCCCCC=O
inactive: all assays above

CC(C)(O)CCCC1=CCC(C=O)CC1 (configuration not stated)
not listed: [8]
inactive: all other assays above

CC12CCC(C1)C(C)(C)C2=O (configuration not stated)
inactive: [6] | [7] | [9] | [10] | [5]
active: [4]

CCCC(=O)O
inactive: [9]

CC(=O)C(C)=O
inactive: [1] | [2] | [3] | [4] | [5]

C=CCc1ccc(O)c(OC)c1
inactive: [1] | [2] | [8] | [3] | [5]
active: [4]

CC(C)CC(=O)O
inactive: [1] | [2] | [3] | [4] | [5]
active: [8]

COc1cc(C=O)ccc1O
inactive: [1] | [2] | [3] | [4] | [5]

COc1ccccc1O
inactive: [1] | [2] | [3] | [4] | [5]

O=C1CCCCCCCCCCCCCCO1
inactive: [1] | [2] | [3] | [4] | [5]

CCCCCCCCC=O
active: [7] | [9] | [5]
inactive: all other assays above

COC(=O)c1ccccc1O
inactive: [1] | [2] | [3] | [4] | [5]

CC(C)=CCCC(C)=CC=O
inactive: [1] | [2] | [3] | [5]
active: [4]

CCCCCC(C)=O
not listed: [8]
inactive: all other assays above

C=CCc1ccc(OC)c(OC)c1
inactive: [1] | [2] | [3] | [5]
active: [4]

CC(C)C=O
inactive: [1] | [2] | [3] | [4] | [5]

CC12CCC(CC1)C(C)(C)O2
inactive: [1] | [2] | [3] | [5]
active: [4]

C=C(C)C1CC=C(C)C(=O)C1 (configuration not stated)
active: [4]
inactive: all other assays above

O=C1CCCCC1
inactive: [7] | [9] | [10] | [5]
active: [6] | [4]

CC1COCc2cc3c(cc21)C(C)(C)C(C)C3(C)C (configuration not stated)
inactive: [1] | [2] | [3] | [4] | [5]
